System: peripheral blood lymphocytes
Assay: Repeat of Hinrichs dexamethasone dosing, peripheral blood lymphocytes by flow cytometry
Type: in vivo
Conditions: same dosing; vehicle 1153
Excerpt: Prior studies into the use of steroids to precondition a patient prior to ACT had shown this approach to be ineffective. […] In contrast, Hinrichs discloses that pretreatment with radiation did enhance ACT tumor killing. […] However, while Hinrichs reported 99% lymphodepletion, no enhancement of ACT tumor killing was observed. In contrast, Hinrichs observed that radiation does enhance ACT tumor killing. […] In contrast, CD3+T lymphocytes were reduced from 3370 to 2441 live events, only a non-significant 33% reduction. CD3+CD4+T lymphocytes were reduced from 1779 to 902 live events, only a non-significant 50% reduction. CD3+CD8_ T lymphocytes were reduced from 1318 to 1277 live events, only a non-significant 3% reduction. CD3+CD4+CD25+FoxP3+ Tregs were reduced from 198 to 70 live events, only a non-significant 65% reduction. And natural killer (NK) cells were reduced from 1153 to 958 live events, only a non-significant 17% reduction.

Compound: C[C@@H]1C[C@H]2[C@@H]3CCC4=CC(=O)C=C[C@]4(C)[C@@]3(F)[C@@H](O)C[C@]2(C)[C@@]1(O)C(=O)CO [dexamethasone]
- natural killer (NK) cells, live events: 958 live events
